{
  "sequences": {"note": "Protein sequences, listed by entry. Tags and fused reporters are not part of them.", "UniProt P04150": "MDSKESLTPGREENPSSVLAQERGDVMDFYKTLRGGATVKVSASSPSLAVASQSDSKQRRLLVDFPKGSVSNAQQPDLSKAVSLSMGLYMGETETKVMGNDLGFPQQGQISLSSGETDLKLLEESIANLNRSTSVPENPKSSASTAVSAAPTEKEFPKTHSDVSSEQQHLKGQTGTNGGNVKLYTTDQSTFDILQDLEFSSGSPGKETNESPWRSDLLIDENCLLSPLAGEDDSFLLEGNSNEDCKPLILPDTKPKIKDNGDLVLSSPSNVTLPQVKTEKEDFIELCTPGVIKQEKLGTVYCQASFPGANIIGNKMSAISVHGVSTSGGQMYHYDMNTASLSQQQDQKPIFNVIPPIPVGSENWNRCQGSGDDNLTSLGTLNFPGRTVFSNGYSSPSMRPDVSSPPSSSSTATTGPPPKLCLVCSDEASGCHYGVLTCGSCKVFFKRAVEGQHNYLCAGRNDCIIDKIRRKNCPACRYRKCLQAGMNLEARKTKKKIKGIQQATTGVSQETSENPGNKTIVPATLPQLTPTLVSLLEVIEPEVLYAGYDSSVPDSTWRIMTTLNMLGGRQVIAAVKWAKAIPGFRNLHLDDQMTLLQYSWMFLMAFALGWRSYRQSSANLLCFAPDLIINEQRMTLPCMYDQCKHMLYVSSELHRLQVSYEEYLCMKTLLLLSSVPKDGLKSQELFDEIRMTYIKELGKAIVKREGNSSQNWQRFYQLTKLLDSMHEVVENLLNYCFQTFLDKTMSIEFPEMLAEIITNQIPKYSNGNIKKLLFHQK"},
  "source": "paper PMC5458067",
  "assay_in_all_cases": "co-IP",
  "key": {"Flag-Hsp90α WT (human)": {"molecular_target": "Flag-Hsp90α WT (human) (UniProt P07900)"}, "[1]": {"molecular_target": "Flag-Hsp90α-Y627F (human) (UniProt P07900)"}, "[2]": {"molecular_target": "Flag-Hsp90α-Y627E (human) (UniProt P07900)"}},
  "note": "No constants are given. Whether binding was seen depends on the method and setting. Binding seen in cells or lysates may run through a third protein. Some results given as binding are weak or reduced against the parent protein; the word gives no strength.",
  "data": [
    {"substance": "v-SRC (from UniProt P00524 1-526)", "values": [
      {"measurement": "binding", "setting": "Flag-Hsp90α WT (human)", "result": "binds"},
      {"measurement": "binding", "setting": "[1]", "result": "binds"}
    ]},
    {"substance": "glucocorticoid receptor (GR) (from UniProt P04150 1-777)", "values": [
      {"measurement": "binding", "setting": "Flag-Hsp90α WT (human)", "result": "binds"},
      {"measurement": "binding", "setting": "[2]", "result": "binds"},
      {"measurement": "binding", "setting": "[1]", "result": "binds"}
    ]}
  ]
}
